PubChem BioAssay AID1259405 | NCATS, 2018
Shown is one part, drawn at random, of about 50,000 reagents tested. Of all reagents, about 4,000 (8%) were called active. 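Mouse siRNA library applied to hamster cells; one well for each siRNA.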 Reagents against one gene are numbered here. No sequences are given here.

- Test: 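Knock-downs that lift recombinant protein yield in hamster ovary cells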 (primary screen)
- Cells: Chinese hamster CHO-K1 ovary cells with stable secreted eGFP expression
- Knock-down reagent: single siRNA against mouse genes, 0.8 pmol siRNA per well (2 µl of 400 nM stock)
- Timing: 3 days
- Measured: 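Per-well intracellular GFP measured by laser scanning cytometry, plus viability from ATP luminescence, each relative to plate median of non-targeting control wells, in %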
- Direction: GFP, % of control: higher = more GFP per well, higher productivity; viability (ATP), % of control: higher = more viable cells (more ATP)
- Hit rule: 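a knock-down is called active if GFP reaches 120% or more of non-targeting control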

Target gene | siRNA no. | GFP, % of control | viability (ATP), % of control | Outcome
Foxo3 | 1 | 67.7 | 64.3 | inactive
Foxo3 | 2 | 95.2 | 92 | inactive
Cx3cr1 | 1 | 117 | 94.7 | inactive
Cx3cr1 | 2 | 74.4 | 60.1 | inactive
Cx3cr1 | 3 | 94.2 | 71.1 | inactive
Evx2 | 1 | 66.1 | 72 | inactive
Evx2 | 2 | 72.4 | 67.8 | inactive
Evx2 | 3 | 106 | 95.3 | inactive
Dtx4 | 1 | 115 | 63.6 | inactive
Dtx4 | 2 | 35.8 | 54.1 | inactive
Dtx4 | 3 | 79.2 | 102 | inactive
Nop14 | 1 | 86.4 | 95.8 | inactive
Nop14 | 2 | 56.9 | 39.5 | inactive
Nop14 | 3 | 79.3 | 76.7 | inactive
Ramp3 | 1 | 71.3 | 60.8 | inactive
Ramp3 | 2 | 97.8 | 60.2 | inactive
Ramp3 | 3 | 14.3 | 4.4 | inactive
Insrr | 1 | 137 | 93.5 | active
Skint11 | 1 | 69.2 | 41.5 | inactive
Skint11 | 2 | 72.1 | 84.9 | inactive
Skint11 | 3 | 76.2 | 101 | inactive
Glra1 | 1 | 98.2 | 98 | inactive
Glra1 | 2 | 55.2 | 60.1 | inactive
Glra1 | 3 | 63.4 | 54.9 | inactive
Samsn1 | 1 | 98.1 | 52.4 | inactive
Samsn1 | 2 | 41.4 | 66.3 | inactive
Samsn1 | 3 | 64.6 | 83.4 | inactive
Rpl36al | 1 | 84.4 | 72.3 | inactive
Rpl36al | 2 | 100 | 87.7 | inactive
Rpl36al | 3 | 45 | 44.2 | inactive
Mcts2 | 1 | 43.9 | 40.7 | inactive
Mcts2 | 2 | 148 | 107 | active
Mcts2 | 3 | 88.7 | 91.3 | inactive

Next part; the last 6 above are carried over.
Target gene | siRNA no. | GFP, % of control | viability (ATP), % of control | Outcome
Rpl36al | 1 | 84.4 | 72.3 | inactive
Rpl36al | 2 | 100 | 87.7 | inactive
Rpl36al | 3 | 45 | 44.2 | inactive
Mcts2 | 1 | 43.9 | 40.7 | inactive
Mcts2 | 2 | 148 | 107 | active
Mcts2 | 3 | 88.7 | 91.3 | inactive
Ogdh | 1 | 45.1 | 24.9 | inactive
Ogdh | 2 | 84.7 | 62.7 | inactive
Ogdh | 3 | 81.1 | 88.7 | inactive
Sec13 | 1 | 37.5 | 41 | inactive
Sec13 | 2 | 89.2 | 36.8 | inactive
Sec13 | 3 | 78.2 | 83.4 | inactive
Slc9a1 | 1 | 67.5 | 71.6 | inactive
Slc9a1 | 2 | 111 | 91.8 | inactive
Slc9a1 | 3 | 79.8 | 75.7 | inactive
Pacrg | 1 | 23.3 | 33.7 | inactive
Pacrg | 2 | 58 | 51.8 | inactive
Pacrg | 3 | 81.9 | 104 | inactive
Cmss1 | 1 | 34.4 | 71.1 | inactive
Cmss1 | 2 | 60.5 | 103 | inactive
Cmss1 | 3 | 79.7 | 113 | inactive
Tbc1d9 | 1 | 92.8 | 91.5 | inactive
Tbc1d9 | 2 | 81.4 | 66.9 | inactive
Tbc1d9 | 3 | 68 | 68.5 | inactive
Cxcl15 | 1 | 63.6 | 77.8 | inactive
Cxcl15 | 2 | 60.3 | 72.1 | inactive
Cxcl15 | 3 | 28 | 50.7 | inactive
Tnfaip8 | 1 | 95.1 | 79.4 | inactive
Tnfaip8 | 2 | 112 | 111 | inactive
Tnfaip8 | 3 | 133 | 114 | active
Runx1 | 1 | 34.9 | 35.5 | inactive
Runx1 | 2 | 57.9 | 66.7 | inactive
Runx1 | 3 | 107 | 62.3 | inactive
Rragc | 1 | 102 | 57.4 | inactive
Rragc | 2 | 96.2 | 63.5 | inactive
Rragc | 3 | 76 | 71.7 | inactive
Usp39 | 1 | 153 | 98 | active
Usp39 | 2 | 108 | 94.4 | inactive
Ndufc2 | 1 | 94.4 | 90.2 | inactive
Ndufc2 | 2 | 114 | 73.3 | inactive
Ndufc2 | 3 | 96.3 | 69 | inactive
Sh2d7 | 1 | 118 | 132 | inactive
Sh2d7 | 2 | 85.1 | 91.7 | inactive
Sh2d7 | 3 | 98.5 | 114 | inactive
Npr2 | 1 | 70.4 | 69.8 | inactive
Npr2 | 2 | 54.2 | 81.3 | inactive
Npr2 | 3 | 73.8 | 82.9 | inactive
Nfkbie | 1 | 68.6 | 94.9 | inactive
Nfkbie | 2 | 110 | 41.5 | inactive
Zfp868 | 1 | 119 | 74.7 | inactive
Zfp868 | 2 | 65.9 | 53.7 | inactive
Zfp868 | 3 | 131 | 107 | active
Nsdhl | 1 | 84.4 | 79.3 | inactive
Nsdhl | 2 | 62 | 82 | inactive
Col6a6 | 1 | 62.3 | 83.3 | inactive
Col6a6 | 2 | 90.6 | 67.7 | inactive
Col6a6 | 3 | 81.5 | 58.2 | inactive
